The nature of the series: general procedure: Fmoc solid-phase peptide synthesis; TentaGel S Ram resin (1 g; 0.25 mmol/g). Particulars: analytical HPLC and MS.

The text below walks through data of patent US9861706B2 (priority 2011, dated 2018).

Several values for one entry are separate records, joined by “and”; a condition that tells them apart may be missing. Equal values may be shown once.

As for “H-HGEGTFTSDLSKQLE-C(Biotin-Mal)-EAVRLFIEWLKN-8Ado-8Ado-YGWLDF-NH2”, the “final HPLC purity” value by setting is: (purification step, run 1) 91% pure; (purification step, run 2) 73% pure and 62% pure; (purification step, run 3) 90% pure; (whole synthesis, run 1) 68% pure; (whole synthesis, run 2) 74% pure.

Regarding “[Cys16(Biotin-Mal),Leu14]Exendin-4(1-28)-8Ado-8Ado-[Leu4]Gastrin6”, the “final HPLC purity” value (conjugation step) came to 84% pure.

On to “[Glu9,Leu14,Phe25,Tyr13]Exendin-4(1-27)-QQ-[Leu4]Gastrin6”, for which the “final HPLC purity” value (whole synthesis) is recorded as 78% pure.

Take “[Leu14,Lys25(Hexadecanoyl-isoGlu)]Exendin-4(1-28)-8Ado-8Ado-[Leu4]Gastrin6”: under “whole synthesis”, the “final HPLC purity” value is 81% pure.
